Measurements as given in the supplement of paper PMC10849652.
The other results are listed elsewhere or left out.

Sequences of proteins named here, by UniProt entry; tags and fusion partners are left off. A change or cut given only in a name is not applied to a line headed by its entry.
UniProt Q96QU6: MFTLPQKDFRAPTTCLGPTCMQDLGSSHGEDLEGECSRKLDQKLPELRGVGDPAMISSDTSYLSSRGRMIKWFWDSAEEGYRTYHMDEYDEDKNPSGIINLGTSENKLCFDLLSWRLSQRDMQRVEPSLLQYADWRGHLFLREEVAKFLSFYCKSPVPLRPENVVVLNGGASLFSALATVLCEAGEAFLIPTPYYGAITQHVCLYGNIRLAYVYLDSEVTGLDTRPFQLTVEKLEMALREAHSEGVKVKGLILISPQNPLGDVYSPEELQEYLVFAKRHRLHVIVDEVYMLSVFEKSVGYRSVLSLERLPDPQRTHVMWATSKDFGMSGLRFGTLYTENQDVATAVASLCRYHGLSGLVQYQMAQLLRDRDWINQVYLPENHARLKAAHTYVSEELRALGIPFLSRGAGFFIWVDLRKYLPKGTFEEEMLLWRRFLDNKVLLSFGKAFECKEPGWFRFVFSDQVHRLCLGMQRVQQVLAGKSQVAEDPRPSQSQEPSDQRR
UniProt Q86TW2: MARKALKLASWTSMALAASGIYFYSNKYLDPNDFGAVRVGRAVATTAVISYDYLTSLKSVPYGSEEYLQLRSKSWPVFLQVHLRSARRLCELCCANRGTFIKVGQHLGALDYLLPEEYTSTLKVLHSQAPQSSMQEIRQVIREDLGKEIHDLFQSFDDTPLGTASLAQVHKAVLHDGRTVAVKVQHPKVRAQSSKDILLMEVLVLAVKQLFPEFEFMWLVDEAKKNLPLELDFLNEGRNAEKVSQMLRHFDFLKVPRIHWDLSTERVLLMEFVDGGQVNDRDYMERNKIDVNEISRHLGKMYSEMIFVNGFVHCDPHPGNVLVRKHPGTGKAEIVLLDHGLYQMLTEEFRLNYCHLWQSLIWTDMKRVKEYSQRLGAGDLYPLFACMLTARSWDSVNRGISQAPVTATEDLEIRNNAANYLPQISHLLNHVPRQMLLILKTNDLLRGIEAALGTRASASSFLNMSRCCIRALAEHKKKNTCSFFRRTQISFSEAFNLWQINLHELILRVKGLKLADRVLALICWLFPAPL
UniProt P14621: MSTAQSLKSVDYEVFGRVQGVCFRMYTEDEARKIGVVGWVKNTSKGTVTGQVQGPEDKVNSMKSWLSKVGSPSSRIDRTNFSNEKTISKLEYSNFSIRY
UniProt Q9P1F3: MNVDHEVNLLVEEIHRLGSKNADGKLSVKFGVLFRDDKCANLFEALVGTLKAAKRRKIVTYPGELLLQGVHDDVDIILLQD
UniProt P08183, whole entry, looked up: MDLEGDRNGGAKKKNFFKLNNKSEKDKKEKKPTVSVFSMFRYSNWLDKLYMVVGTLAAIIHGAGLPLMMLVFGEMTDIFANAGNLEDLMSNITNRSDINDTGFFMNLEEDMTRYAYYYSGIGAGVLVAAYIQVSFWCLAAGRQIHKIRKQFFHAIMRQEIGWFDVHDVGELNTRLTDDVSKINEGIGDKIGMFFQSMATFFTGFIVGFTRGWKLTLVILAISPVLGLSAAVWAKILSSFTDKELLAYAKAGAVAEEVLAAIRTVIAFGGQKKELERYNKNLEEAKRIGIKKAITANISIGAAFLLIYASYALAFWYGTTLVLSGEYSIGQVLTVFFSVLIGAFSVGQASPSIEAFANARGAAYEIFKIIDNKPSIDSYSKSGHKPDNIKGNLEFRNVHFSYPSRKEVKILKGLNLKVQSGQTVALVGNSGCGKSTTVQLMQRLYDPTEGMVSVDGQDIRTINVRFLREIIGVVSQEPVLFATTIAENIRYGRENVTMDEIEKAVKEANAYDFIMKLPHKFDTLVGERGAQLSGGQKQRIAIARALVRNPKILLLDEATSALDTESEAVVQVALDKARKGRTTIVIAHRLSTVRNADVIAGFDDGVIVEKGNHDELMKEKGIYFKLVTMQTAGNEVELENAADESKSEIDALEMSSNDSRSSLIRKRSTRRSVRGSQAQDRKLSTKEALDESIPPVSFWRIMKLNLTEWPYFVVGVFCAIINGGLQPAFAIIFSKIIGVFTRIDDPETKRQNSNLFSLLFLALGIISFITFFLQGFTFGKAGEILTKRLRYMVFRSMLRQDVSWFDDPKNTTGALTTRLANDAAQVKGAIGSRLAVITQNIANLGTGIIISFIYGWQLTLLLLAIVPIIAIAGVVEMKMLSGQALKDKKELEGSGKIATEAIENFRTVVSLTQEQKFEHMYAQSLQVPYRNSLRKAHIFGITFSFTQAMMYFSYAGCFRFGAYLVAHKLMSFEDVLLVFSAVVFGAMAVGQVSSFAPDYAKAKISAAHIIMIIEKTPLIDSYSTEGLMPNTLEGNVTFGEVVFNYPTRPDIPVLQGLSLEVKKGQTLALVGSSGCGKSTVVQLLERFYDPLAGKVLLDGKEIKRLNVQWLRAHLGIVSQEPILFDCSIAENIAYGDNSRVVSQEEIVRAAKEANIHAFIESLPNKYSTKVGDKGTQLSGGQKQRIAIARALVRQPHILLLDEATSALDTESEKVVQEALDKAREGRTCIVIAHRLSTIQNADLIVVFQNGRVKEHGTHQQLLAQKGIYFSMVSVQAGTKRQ
UniProt P21439, whole entry, looked up: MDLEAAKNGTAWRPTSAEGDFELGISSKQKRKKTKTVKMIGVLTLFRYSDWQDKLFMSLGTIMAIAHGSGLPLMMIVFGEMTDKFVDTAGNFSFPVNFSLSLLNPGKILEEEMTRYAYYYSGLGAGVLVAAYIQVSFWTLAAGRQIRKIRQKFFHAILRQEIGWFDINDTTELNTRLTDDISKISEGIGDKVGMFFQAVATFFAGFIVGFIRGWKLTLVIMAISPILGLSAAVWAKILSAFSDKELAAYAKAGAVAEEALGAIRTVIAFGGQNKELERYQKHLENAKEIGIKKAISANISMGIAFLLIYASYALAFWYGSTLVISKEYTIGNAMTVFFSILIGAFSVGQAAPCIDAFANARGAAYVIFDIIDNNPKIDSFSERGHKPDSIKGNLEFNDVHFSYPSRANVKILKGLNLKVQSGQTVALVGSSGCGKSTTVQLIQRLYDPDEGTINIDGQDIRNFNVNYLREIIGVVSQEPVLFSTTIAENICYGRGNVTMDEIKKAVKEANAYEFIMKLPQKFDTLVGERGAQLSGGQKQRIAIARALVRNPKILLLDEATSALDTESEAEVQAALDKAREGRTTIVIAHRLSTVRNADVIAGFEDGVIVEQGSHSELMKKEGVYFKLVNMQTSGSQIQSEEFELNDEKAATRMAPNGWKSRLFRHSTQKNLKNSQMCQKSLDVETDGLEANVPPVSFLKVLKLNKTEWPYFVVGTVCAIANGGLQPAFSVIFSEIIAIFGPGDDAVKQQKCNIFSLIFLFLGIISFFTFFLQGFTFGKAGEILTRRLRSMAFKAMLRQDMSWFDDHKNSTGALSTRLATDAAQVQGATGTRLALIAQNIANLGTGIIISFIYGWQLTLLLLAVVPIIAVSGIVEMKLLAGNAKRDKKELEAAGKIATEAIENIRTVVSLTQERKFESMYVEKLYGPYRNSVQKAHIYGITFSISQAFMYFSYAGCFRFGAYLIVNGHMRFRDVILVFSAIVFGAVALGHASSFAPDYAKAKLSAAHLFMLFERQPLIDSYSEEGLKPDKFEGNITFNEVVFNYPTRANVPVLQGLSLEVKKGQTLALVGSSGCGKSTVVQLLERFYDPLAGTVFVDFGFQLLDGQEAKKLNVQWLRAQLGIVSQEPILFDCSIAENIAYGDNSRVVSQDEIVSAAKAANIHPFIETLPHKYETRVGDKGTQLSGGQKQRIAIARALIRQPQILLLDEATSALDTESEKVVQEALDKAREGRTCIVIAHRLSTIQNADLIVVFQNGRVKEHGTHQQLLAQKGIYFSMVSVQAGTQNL
UniProt Q8WTS1: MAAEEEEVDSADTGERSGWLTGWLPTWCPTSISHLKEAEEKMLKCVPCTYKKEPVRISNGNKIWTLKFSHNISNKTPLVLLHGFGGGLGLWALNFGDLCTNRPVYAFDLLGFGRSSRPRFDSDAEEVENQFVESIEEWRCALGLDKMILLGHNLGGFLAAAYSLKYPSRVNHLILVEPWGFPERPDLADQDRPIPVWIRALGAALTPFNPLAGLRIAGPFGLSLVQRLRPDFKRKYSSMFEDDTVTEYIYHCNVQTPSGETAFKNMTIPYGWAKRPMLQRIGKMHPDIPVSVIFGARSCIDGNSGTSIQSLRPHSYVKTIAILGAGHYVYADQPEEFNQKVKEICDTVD
UniProt P42684, whole entry, looked up: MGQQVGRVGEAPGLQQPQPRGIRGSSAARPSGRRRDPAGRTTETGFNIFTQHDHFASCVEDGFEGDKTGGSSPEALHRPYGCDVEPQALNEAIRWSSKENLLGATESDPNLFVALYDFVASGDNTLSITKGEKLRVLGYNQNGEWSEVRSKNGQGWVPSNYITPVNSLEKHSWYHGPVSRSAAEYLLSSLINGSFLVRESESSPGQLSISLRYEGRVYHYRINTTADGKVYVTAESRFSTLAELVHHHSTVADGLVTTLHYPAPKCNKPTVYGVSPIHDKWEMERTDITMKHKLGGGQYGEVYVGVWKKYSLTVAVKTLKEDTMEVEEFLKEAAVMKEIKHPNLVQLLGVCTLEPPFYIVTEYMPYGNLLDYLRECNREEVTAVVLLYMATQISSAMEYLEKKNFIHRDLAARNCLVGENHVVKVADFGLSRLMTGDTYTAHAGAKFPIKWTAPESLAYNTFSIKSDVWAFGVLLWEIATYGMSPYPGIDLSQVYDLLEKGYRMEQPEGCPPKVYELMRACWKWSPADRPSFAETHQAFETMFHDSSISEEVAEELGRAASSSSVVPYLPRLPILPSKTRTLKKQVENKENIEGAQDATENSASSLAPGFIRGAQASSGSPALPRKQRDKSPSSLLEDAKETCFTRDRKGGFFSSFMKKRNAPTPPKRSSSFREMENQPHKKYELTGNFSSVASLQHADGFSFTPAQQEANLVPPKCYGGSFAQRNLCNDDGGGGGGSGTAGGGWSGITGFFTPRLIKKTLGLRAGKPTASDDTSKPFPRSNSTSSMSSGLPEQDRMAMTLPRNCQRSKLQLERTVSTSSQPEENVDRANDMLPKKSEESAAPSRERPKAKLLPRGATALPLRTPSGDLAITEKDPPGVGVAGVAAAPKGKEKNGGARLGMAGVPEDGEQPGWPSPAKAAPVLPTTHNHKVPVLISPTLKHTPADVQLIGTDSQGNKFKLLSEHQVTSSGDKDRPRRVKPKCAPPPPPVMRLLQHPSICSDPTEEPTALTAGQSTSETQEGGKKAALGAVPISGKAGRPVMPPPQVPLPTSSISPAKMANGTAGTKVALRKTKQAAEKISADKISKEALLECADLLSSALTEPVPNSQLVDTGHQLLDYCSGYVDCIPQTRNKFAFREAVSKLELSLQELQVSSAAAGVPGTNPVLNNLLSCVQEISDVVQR
UniProt Q9NX38: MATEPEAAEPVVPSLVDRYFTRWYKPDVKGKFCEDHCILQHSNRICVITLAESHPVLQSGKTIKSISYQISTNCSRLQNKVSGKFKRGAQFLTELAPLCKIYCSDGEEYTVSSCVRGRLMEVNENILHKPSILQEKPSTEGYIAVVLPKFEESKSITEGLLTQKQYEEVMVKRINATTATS
UniProt Q4L235: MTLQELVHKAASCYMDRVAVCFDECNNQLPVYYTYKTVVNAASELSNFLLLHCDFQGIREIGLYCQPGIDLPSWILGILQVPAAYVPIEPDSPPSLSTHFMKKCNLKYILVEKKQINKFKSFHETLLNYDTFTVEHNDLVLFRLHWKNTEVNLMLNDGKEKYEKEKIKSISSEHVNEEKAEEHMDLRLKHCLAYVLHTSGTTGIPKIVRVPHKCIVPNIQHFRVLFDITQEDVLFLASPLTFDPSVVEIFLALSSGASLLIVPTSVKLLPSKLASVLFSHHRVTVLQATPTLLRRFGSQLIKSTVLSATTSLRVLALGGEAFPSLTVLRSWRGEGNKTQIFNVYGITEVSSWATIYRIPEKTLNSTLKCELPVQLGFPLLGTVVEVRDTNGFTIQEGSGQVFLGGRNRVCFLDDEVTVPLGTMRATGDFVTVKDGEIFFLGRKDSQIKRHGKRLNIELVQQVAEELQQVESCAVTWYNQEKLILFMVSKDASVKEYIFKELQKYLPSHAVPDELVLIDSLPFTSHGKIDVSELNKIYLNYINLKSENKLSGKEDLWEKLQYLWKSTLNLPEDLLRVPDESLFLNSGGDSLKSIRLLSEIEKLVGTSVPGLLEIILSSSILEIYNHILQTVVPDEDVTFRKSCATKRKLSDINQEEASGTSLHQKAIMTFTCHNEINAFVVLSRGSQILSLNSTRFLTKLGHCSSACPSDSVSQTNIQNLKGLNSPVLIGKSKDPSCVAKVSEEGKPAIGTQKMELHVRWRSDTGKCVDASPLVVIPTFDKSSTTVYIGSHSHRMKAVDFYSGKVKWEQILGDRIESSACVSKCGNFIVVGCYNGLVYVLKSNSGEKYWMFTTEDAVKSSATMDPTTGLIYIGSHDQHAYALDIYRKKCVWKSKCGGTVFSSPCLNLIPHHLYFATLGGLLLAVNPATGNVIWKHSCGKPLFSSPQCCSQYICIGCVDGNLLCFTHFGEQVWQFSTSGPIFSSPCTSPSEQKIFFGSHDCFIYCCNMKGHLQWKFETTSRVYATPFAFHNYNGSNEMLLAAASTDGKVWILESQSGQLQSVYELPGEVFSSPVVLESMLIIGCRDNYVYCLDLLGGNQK

compound: CC1=C(C(CC(=O)N1)C2=CC=C(C=C2)C(F)(F)F)C(=O)NC3=C(C=C4C(=C3)C=NN4)F; assay: log2 fold change, soluble protein after heating vs DMSO (PISA); higher = thermal stabilisation; K562 cells, 10 uM, 30 min; active = over 0.2 and 3.5 SD of the protein, either way, in both replicates (recomputed)
Summary of the method: (§1)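 K562 cells at 2×10^6 cells/mL were treated for 30 min with 10 μM compound, and aliquots were heated for 3 min over 48°C-58°C before pooling. Extraction used PBS with 0.5% NP-40 at 4°C, and soluble protein was the supernatant after 21,000xg for 90 min, measured by TMTpro 16plex LC-MS/MS with channel sums equalised. Thermal stability values, relative to control samples and from duplicates, are log2 fold changes.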

Row | Target | log2 fold change
1 | ACTB, A0A2R8YEA7 | inactive: -0.115
2 | ADAD1 (UniProt Q96M93) | inactive: 0.073
3 | ACAA2 (UniProt K7ER88) | inactive: 0.038
4 | A2ML1 (UniProt A8K2U0) | inactive: -0.3
5 | ACCS (UniProt Q96QU6) | inactive: -0.03
6 | ADCK1 (UniProt Q86TW2) | inactive: 0.057
7 | ABHD6 (UniProt Q9BV23) | inactive: -0.342
8 | ACAT1, A0A5F9ZHJ0 | inactive: 0.167
9 | ABCB5 (UniProt Q2M3G0) | inactive: -0.137
10 | ACTG1 (UniProt I3L4N8) | inactive: 0.146
11 | ACYP2 (UniProt P14621) | inactive: 0.056
12 | ABRACL (UniProt Q9P1F3) | inactive: 0.12
13 | ABCF1 (UniProt Q5STZ8) | inactive: -0.072

compound: CC1=C(C2=C(C=C1)C(=O)C3=CC=CC=C3N2CCCN)C; assay: as above
Summary of the method: as §1

Row | Target | log2 fold change
14 | ACTB, A0A2R8YEA7 | inactive: -0.103
15 | ACTR3B (UniProt Q9P1U1) | inactive: -0.016
16 | ADAD1 (UniProt Q96M93) | inactive: 0.069
17 | A2ML1 (UniProt A8K2U0) | inactive: 0.706
18 | ABCB1 (UniProt P08183) | inactive: -0.016
19 | ACTG1 (UniProt K7EM38) | inactive: -0.11
20 | ACOX1 isoform 3 (UniProt Q15067) | inactive: 0.343
21 | ACCS (UniProt Q96QU6) | inactive: 0.007
22 | ABCB4 (UniProt P21439) | inactive: 0.07
23 | ADCK1 (UniProt Q86TW2) | inactive: -0.047
24 | ABCB11 (UniProt O95342) | inactive: 0.067
25 | ABHD5 (UniProt Q8WTS1) | inactive: -0.335
26 | ABHD6 (UniProt Q9BV23) | inactive: 0.055
27 | ACAT1, A0A5F9ZHJ0 | inactive: -0.068
28 | ACYP2 (UniProt P14621) | inactive: 0.125
29 | ABL2 (UniProt P42684) | inactive: 0.11
30 | ACSL6 isoform 1 (UniProt Q9UKU0) | inactive: 0.012
31 | ABITRAM (UniProt Q9NX38) | inactive: 0.001
32 | ABCF1 (UniProt Q5STZ8) | inactive: 0.111
33 | AASDH (UniProt Q4L235) | inactive: -0.184
34 | ABCA8 isoform 3 (UniProt O94911) | inactive: -0.059
